Here are results for 4 molecules from publication PMC3107199.

Amino acid sequences for entries named in this document (tags omitted). A change or cut given only in a name is not applied to a line headed by its entry.
UniProt Q95RR6: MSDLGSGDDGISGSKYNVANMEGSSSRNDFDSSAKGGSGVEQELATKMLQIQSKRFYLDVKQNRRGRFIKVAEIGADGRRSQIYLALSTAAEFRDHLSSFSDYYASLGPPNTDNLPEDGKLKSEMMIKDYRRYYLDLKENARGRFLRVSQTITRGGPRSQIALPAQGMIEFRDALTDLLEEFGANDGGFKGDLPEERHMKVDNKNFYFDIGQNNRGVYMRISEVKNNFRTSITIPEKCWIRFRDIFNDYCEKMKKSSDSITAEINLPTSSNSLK
UniProt P19109: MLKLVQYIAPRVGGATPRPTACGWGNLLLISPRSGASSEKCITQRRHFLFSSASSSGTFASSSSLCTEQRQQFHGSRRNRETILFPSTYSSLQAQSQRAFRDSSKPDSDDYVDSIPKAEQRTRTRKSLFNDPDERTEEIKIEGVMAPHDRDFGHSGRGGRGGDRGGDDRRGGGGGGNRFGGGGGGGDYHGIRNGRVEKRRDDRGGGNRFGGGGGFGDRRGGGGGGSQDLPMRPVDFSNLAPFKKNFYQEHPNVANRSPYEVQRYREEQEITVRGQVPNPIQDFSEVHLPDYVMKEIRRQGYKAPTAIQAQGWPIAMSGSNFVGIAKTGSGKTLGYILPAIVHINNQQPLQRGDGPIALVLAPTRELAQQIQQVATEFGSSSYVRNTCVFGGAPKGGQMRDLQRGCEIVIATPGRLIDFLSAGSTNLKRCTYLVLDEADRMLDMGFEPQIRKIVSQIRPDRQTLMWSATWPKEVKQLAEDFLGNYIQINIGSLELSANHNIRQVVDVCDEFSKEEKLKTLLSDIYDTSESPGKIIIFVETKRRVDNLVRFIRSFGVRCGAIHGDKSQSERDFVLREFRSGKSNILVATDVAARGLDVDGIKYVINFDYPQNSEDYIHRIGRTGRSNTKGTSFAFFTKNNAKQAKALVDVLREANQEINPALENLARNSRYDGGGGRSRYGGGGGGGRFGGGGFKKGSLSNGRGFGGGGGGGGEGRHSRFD

Assay [1] concerns the target GST-Pur α fusion protein (Drosophila melanogaster) (UniProt Q95RR6). Nature of the assay: pull-down; purified recombinant GST-Pur α or GST incubated overnight with S2 cell extract; Western blot for Rm62 and Hts; samples treated or untreated with RNase; only the target purified. Background: In western blotting, separated proteins are transferred to a membrane and probed.

Assay [2] shares this target. Nature of the assay: pull-down; [35S]methionine-labelled in vitro-translated proteins mixed with purified GST-Pur α or GST alone; 150 mM NaCl; samples treated or untreated with RNase; only the target purified.

No constants are given. Whether binding was seen depends on the method and setting. Binding seen in cells or lysates may run through a third protein. Binding can be weak; no strength is given.

“endogenous Rm62 (from UniProt P19109 1-719)”: the binding entry in assay [1] is recorded as “binds”.

For the molecule “in vitro-translated Rm62 (from UniProt P19109 1-719)”, in assay [2], the binding result is “binds”.

B1: in vitro-translated Hts (protein, UniProt Q02645 1-1156)
chain: MTEVEQPPQNGIDPTAGEDDDNSKARPADIEQDMREMERRKRVEAIMGSKLFREELERIVDSARDGGAGASGILQQLSDIVGVPVSRVGSVFKSSNCMVPINDIRGVESMGYAKGEKILRCKLAATFRLLDLYGWTQGLGAQITARLKVDQEYFLVNPYGLLYHEITASALNKVDMQGQIVEQGTTNFGGNKSHFVLHSVVHAARPDIRCAIYIGCSPVVAISSLKTGLLPLTKDACVLGEITTHAYTGLFDEEERNRLVRSLGPNSKVILLTNHGALCCGETIEEAFFAACHIVQACETQLKLLPVGLDNLVLIPEESRKAIYEQSRRPPEDLEKKFAAVAAAEDGAATAEKDAAEAVPKVGSPPKWRVGGAEFEALMRMLDNAGYRTGYIYRHPLIKSDPPKPKNDVELPPAVSSLGYLLEEEELFRQGIWKKGDIRKGGDRSRWLNSPNVYQKVEVLETGTPDPKKITKWVAEGSPTHSTPVRIEDPLQFVPAGTNPREFKRVQQLIKDNRRADKISAGPQSHILEGVTWDEASRLKDATVSQAGDHVVMMGAASKGIIQRGFQHNATVYKAPYAKNPFDNVTDDELNEYKRTVERKKKSVHGEYTDTDFSESEAVLQAGTKKYPQSEPETEHQVIEIQTQQAPVPRQAEVVLSDALVSQLAQKYAFLYSPGQYMYACMKMAPLMHKVYVIHKVEPVSKHNYPPVNDGNMSIHHNESGAGFMAQESSVISSTPVRNALASVSLPEERNHSILGLSSTPYRTISHFGFNCPLITSPTILLHPEHRSIWQRVAEQREKVVSFIDLTTLSLDNRKLLNVVTSTHPTQCQSQSQSFISEKHIQLEVTPPKRKQRVYSATISSGLDDSLDELDSLMSGLAINMPRSREQDSGLYRSYTFLPSNHALPKDTDANNRDQTDRERPEAEQEESFHCAGDSGIGDSTGRRPRLATTSNDSSIQEAEAYTQGKHVKLTLSSSPTPTATQSPATIEILINVSLRNAECVQTVQTHEQEFRAKLERVIDEEIHYISQQLAFKQRQAELHEQQTTSRAPIATPSFTTMHPPAPASSSSMVHRSNSAPELCHTYSYVAVGDLSTKQDQASPQLPAEGEPLNDILSSLEKELERLLNSVVTAHMLHNKAIIHECRARFSQLADGIVSS
modifications: [35S] methionine label
Take B1: the binding entry in assay [2] was “binds”.

B2: endogenous Hts (protein, UniProt Q02645 1-1156)
chain: B1 chain
As to B2, the binding result in assay [1] is “binds”.
